Assay results taken from paper PMC11843548.
Results are given in words; binding and its absence hold for the method and conditions named. Some entries that bind do so weakly or less than the wild type.

Chains of the proteins cited; added tags and fusions are not shown. Residues count along the entry.
UniProt P24821, residues 23-2201: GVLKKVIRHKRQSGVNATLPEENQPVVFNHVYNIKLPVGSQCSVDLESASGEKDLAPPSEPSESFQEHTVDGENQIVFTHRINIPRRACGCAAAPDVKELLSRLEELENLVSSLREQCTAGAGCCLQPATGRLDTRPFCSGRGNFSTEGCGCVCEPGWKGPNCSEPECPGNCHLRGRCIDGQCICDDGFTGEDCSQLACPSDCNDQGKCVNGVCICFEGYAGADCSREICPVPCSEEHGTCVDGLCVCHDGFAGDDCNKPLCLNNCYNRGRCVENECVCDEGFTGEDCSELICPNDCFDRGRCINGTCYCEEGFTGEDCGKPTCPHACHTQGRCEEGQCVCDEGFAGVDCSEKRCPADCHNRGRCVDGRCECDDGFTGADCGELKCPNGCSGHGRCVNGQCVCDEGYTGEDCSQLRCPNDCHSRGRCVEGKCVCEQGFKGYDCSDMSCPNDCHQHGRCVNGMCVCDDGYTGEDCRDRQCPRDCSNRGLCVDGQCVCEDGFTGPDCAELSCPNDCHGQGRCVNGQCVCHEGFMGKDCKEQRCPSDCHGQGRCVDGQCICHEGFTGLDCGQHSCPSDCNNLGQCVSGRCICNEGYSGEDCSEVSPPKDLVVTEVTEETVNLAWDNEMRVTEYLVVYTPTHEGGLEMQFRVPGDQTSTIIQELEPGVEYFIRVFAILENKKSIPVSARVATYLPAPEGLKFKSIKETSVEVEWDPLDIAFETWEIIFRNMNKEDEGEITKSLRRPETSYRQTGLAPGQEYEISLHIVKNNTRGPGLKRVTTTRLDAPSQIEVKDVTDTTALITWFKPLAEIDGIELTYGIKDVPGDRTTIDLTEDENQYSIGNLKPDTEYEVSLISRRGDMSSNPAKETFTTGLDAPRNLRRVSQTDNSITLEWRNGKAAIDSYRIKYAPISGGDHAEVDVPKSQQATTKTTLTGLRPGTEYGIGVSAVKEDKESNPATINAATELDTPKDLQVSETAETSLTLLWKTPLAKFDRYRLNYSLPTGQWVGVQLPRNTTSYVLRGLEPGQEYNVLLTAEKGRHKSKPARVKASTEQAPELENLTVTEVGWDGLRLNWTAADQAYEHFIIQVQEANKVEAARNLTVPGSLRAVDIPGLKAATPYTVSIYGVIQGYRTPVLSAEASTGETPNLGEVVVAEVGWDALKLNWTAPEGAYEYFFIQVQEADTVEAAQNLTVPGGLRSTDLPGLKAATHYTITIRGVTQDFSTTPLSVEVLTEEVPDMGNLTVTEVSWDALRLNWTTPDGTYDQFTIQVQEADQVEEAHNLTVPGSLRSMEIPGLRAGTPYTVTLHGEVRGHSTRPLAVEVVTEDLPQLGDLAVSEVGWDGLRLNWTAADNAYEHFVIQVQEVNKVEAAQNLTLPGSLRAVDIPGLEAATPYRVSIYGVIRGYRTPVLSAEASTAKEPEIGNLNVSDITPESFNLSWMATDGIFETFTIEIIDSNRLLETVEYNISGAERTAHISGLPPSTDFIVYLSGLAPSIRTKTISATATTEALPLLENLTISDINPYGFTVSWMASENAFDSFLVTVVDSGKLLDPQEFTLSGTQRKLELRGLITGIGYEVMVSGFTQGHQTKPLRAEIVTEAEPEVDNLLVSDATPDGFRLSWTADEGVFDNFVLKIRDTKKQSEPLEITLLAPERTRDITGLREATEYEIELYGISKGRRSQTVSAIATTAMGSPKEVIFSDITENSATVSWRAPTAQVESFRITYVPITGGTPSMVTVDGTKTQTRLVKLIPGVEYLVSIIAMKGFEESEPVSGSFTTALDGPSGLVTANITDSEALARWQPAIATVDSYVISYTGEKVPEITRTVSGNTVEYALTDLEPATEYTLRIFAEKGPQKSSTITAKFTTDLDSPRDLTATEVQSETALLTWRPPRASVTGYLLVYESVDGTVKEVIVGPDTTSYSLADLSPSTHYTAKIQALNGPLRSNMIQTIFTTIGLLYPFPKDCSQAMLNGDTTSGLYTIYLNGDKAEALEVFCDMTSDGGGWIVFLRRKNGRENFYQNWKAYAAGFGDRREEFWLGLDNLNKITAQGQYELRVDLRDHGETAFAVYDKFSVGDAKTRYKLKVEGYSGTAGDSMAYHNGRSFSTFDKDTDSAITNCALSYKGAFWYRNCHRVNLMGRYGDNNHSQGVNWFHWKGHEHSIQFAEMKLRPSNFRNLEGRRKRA

Molecular target: Recombinant Tenascin-C (EMD Millipore) (UniProt P24821)
Assay: co-IP; recombinant TNC (methods: 1 µg in 1 mL; legend: 0.1 mg/mL) and several concentrations of recombinant Wnt-2 in NDLB (50 mM Tris-HCl pH 7.4, 300 mM NaCl, 5 mM EDTA, 1% Triton X-100), TNC antibody overnight at 4 °C, Protein A/G magnetic beads, 5 washes; immunoblot for Wnt-2; both purified

binding: binds
B1: Recombinant Wnt-2 (Biomatik) (ligand, UniProt P09544 26-360)
chain: SWWYMRATGGSSRVMCDNVPGLVSSQRQLCHRHPDVMRAISQGVAEWTAECQHQFRQHRWNCNTLDRDHSLFGRVLLRSSRESAFVYAISSAGVVFAITRACSQGEVKSCSCDPKKMGSAKDSKGIFDWGGCSDNIDYGIKFARAFVDAKERKGKDARALMNLHNNRAGRKAVKRFLKQECKCHGVSGSCTLRTCWLAMADFRKTGDYLWRKYNGAIQVVMNQDGTGFTVANERFKKPTKNDLVYFENSPDYCIRDREAGSLGTAGRVCNLTSRGMDSCEVMCCGRGYDTSHVTRMTKCGCKFHWCCAVRCQDCLEALDVHTCKAPKNADWTTAT
